From publication PMC11024252
Results are given in words; binding and its absence hold for the method and conditions named. Binding seen in cells or lysates may run through a third protein. Some binding calls cover weakened binding; strength is not graded here.

Experiments:
[1] = molecular target: T1, NFATc1 (human (endogenous in IVD cells)) (UniProt O95644); assay: proximity ligation; in situ PLA (Duolink In Situ Orange, Mouse/Rabbit) on IVD cells fixed in 100% methanol; primary antibodies anti-P2X7R (#P8232) with anti-NFATc1 (# sc-7294) or anti-lamin A/C (# sc-376248); endogenous proteins; 100 cells or nuclei counted per sample
T1 sequence: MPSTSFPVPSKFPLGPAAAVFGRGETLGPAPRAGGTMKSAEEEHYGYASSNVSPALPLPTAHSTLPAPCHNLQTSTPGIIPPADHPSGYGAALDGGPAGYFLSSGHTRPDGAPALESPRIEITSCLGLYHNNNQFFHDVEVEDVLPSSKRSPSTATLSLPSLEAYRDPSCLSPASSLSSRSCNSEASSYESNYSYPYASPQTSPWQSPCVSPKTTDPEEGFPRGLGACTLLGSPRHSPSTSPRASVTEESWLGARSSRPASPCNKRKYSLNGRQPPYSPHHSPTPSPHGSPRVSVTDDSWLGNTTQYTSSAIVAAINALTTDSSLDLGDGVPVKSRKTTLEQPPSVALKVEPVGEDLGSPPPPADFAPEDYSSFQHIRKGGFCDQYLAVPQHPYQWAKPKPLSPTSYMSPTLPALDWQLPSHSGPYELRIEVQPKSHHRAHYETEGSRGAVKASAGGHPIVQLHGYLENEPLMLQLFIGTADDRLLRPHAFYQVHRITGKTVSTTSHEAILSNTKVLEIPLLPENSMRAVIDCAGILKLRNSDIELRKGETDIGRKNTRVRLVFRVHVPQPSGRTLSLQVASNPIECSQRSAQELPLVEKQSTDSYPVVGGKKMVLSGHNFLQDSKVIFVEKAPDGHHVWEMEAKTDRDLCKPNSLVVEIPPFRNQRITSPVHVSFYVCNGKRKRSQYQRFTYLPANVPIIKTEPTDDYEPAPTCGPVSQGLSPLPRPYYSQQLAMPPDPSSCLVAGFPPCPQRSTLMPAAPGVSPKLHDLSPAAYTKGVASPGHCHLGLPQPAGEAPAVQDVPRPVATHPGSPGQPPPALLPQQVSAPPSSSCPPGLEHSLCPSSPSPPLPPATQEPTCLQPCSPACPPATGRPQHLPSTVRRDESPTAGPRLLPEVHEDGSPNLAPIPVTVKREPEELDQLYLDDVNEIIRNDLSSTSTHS

[2] = molecular target: T1, NFATc1 (human (endogenous in IVD cells)); assay: co-IP; IVD cells from four patients of the same grade of degeneration pooled, lysed in RIPA buffer (50 mM Tris-HCl pH 7.8, 1% NP-40, 150 mM NaCl, 0.5% SDC, 0.1% SDS); 1 mg lysate with 10 ug anti-NFATc1 (# sc-7294) 12 h at 4°C, Protein A + G magnetic beads; blot with anti-NFATc1 and anti-P2X7R; normal mouse IgG as negative control

binding [1]: binds | binding [2]: binds
B1: P2X7 receptor (receptor, UniProt Q99572 1-595)
chain: MPACCSCSDVFQYETNKVTRIQSMNYGTIKWFFHVIIFSYVCFALVSDKLYQRKEPVISSVHTKVKGIAEVKEEIVENGVKKLVHSVFDTADYTFPLQGNSFFVMTNFLKTEGQEQRLCPEYPTRRTLCSSDRGCKKGWMDPQSKGIQTGRCVVYEGNQKTCEVSAWCPIEAVEEAPRPALLNSAENFTVLIKNNIDFPGHNYTTRNILPGLNITCTFHKTQNPQCPIFRLGDIFRETGDNFSDVAIQGGIMGIEIYWDCNLDRWFHHCRPKYSFRRLDDKTTNVSLYPGYNFRYAKYYKENNVEKRTLIKVFGIRFDILVFGTGGKFDIIQLVVYIGSTLSYFGLAAVFIDFLIDTYSSNCCRSHIYPWCKCCQPCVVNEYYYRKKCESIVEPKPTLKYVSFVDESHIRMVNQQLLGRSLQDVKGQEVPRPAMDFTDLSRLPLALHDTPPIPGQPEEIQLLRKEATPRSRDSPVWCQCGSCLPSQLPESHRCLEELCCRKKPGACITTSELFRKLVLSRHVLQFLLLYQEPLLALDVDSTNSRLRHCAYRCYATWRFGSQDMADFAILPSCCRWRIRKEFPKSEGQYSGFKSPY
